In article doi:10.1101/2024.07.12.603229:
No constants are given. Whether binding was seen depends on the method and setting. Binding seen in cells or lysates may run through a third protein. Binding can be weak; no strength is given.

Amino acid sequences for entries named in this document (tags omitted). Residues count along the entry.
UniProt O22476, residues 24-1196: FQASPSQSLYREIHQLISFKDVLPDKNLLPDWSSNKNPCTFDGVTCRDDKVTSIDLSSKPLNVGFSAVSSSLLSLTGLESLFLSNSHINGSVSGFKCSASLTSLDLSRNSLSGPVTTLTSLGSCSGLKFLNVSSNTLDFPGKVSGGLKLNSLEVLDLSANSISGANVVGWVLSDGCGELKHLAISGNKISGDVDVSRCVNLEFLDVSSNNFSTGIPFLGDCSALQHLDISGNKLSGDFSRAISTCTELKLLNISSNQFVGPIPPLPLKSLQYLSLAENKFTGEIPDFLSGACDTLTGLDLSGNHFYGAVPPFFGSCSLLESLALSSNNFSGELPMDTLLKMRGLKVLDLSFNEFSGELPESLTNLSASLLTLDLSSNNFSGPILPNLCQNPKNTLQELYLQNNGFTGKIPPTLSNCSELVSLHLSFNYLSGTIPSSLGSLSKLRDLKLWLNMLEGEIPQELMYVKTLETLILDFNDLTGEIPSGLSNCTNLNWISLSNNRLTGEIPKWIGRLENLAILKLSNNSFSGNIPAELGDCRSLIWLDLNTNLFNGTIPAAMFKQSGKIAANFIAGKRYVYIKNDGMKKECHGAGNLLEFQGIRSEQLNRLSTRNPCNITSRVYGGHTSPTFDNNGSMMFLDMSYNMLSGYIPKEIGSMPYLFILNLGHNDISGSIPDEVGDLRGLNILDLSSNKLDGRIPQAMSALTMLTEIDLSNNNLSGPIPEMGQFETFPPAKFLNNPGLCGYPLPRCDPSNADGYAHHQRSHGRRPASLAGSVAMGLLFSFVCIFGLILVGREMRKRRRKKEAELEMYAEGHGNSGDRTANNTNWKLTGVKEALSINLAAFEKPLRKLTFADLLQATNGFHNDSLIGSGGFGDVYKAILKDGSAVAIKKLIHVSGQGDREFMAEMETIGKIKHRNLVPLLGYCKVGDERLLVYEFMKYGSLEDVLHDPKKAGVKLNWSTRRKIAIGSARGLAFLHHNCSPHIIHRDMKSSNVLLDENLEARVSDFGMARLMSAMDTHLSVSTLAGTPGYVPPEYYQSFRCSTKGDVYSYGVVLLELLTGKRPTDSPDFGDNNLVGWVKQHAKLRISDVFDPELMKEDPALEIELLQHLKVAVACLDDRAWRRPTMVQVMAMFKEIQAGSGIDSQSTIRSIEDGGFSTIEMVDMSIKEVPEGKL
UniProt Q9ZWC8, residues 22-1166: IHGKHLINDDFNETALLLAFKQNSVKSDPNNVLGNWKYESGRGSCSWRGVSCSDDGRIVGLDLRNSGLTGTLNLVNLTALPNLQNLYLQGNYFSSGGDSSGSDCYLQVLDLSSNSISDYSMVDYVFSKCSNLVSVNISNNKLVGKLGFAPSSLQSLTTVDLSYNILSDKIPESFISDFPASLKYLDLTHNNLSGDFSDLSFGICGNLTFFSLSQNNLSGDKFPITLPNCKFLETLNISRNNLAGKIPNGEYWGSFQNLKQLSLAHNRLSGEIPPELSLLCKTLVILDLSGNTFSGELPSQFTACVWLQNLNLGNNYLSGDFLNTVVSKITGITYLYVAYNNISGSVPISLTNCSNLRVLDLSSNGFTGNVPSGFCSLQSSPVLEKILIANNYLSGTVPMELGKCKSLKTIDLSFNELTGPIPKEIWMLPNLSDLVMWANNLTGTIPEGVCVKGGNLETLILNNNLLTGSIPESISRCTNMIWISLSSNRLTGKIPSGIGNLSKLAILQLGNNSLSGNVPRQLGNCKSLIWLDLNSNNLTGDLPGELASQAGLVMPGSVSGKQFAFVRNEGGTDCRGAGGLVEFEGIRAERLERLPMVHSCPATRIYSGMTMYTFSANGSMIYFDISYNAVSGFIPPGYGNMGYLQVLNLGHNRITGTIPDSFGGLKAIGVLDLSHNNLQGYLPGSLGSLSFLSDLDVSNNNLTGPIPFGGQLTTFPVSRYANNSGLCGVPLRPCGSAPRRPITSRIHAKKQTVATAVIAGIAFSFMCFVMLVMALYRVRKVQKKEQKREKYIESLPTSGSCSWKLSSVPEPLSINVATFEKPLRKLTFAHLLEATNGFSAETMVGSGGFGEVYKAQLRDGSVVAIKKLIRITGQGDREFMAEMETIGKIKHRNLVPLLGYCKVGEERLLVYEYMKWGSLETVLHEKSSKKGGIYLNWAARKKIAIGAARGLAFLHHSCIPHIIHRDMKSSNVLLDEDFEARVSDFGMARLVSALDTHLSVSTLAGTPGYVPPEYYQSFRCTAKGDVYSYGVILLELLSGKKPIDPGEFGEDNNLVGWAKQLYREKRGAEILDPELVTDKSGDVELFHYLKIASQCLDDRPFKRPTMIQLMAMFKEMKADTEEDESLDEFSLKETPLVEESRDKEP
UniProt Q9LJF3, residues 24-1164: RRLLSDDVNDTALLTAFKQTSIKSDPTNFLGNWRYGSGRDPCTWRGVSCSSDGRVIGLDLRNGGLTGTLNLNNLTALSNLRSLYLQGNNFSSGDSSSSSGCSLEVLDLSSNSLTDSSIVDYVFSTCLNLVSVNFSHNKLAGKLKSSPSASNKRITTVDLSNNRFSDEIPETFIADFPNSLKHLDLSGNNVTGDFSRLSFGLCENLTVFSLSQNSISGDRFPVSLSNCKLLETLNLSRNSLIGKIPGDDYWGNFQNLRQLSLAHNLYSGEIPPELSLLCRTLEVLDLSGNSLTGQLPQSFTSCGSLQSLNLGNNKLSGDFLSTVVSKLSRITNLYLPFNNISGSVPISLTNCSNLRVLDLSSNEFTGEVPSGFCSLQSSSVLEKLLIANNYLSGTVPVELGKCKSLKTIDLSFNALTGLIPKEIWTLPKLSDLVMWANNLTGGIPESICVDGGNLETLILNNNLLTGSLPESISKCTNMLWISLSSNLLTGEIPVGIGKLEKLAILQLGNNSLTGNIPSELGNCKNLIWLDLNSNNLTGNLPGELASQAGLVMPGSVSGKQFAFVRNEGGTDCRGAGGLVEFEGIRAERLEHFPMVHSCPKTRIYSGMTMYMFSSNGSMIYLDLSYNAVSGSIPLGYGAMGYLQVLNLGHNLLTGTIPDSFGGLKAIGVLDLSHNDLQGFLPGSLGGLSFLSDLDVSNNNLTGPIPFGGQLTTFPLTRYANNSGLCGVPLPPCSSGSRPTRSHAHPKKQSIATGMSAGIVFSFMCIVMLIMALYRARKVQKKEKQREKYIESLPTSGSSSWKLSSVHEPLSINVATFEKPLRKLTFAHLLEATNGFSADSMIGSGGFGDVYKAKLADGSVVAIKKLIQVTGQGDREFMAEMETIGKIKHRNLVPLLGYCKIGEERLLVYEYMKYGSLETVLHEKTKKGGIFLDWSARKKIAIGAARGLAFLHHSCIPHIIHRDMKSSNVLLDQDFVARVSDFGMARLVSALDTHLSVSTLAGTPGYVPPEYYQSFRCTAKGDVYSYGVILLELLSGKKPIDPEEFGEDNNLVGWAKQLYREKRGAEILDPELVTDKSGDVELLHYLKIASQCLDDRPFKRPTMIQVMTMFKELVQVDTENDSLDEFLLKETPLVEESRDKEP

Tests used:
Test in all cases: split reporter
[1] = molecular target: BRI1-mCitN (35S::BRI1-mCitN), BiFC fusion (Arabidopsis thaliana) (UniProt O22476)
BRL1, BiFC fusion = BRL1, BiFC fusion (UniProt Q9ZWC8)
BRL3, BiFC fusion = BRL3, BiFC fusion (UniProt Q9LJF3)

Measured: binding

MBAP1-mCitC (35S::MBAP1-mCitC), BiFC fusion (from UniProt Q9LQI8)
binds: all assays above
